Measured values published in the supplement of paper PMC10849652.
The list shows a part of the results.

By UniProt entry, the sequences of proteins in these tests, tags left out. Where a name states a change or a piece, a line headed by the entry shows the natural chain unless it says otherwise.
UniProt Q92556, whole entry, looked up: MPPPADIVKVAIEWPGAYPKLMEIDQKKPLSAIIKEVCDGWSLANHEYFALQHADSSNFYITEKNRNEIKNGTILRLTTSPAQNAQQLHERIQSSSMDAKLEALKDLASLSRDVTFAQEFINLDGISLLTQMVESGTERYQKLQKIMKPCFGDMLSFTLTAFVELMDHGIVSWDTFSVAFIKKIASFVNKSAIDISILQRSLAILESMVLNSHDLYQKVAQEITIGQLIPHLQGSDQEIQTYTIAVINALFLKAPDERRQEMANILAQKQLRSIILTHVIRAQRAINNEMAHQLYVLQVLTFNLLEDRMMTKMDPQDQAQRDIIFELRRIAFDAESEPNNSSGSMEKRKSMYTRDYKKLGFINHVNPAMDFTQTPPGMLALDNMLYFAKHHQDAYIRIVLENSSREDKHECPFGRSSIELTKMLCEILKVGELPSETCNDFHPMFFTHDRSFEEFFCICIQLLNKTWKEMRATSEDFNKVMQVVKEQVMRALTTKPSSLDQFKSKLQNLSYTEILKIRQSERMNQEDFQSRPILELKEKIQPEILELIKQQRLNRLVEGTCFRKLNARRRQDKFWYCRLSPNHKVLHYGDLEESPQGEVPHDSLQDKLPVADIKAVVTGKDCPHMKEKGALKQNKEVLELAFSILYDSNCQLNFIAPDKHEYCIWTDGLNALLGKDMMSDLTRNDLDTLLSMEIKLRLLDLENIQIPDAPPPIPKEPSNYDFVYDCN
UniProt P11171, whole entry, looked up: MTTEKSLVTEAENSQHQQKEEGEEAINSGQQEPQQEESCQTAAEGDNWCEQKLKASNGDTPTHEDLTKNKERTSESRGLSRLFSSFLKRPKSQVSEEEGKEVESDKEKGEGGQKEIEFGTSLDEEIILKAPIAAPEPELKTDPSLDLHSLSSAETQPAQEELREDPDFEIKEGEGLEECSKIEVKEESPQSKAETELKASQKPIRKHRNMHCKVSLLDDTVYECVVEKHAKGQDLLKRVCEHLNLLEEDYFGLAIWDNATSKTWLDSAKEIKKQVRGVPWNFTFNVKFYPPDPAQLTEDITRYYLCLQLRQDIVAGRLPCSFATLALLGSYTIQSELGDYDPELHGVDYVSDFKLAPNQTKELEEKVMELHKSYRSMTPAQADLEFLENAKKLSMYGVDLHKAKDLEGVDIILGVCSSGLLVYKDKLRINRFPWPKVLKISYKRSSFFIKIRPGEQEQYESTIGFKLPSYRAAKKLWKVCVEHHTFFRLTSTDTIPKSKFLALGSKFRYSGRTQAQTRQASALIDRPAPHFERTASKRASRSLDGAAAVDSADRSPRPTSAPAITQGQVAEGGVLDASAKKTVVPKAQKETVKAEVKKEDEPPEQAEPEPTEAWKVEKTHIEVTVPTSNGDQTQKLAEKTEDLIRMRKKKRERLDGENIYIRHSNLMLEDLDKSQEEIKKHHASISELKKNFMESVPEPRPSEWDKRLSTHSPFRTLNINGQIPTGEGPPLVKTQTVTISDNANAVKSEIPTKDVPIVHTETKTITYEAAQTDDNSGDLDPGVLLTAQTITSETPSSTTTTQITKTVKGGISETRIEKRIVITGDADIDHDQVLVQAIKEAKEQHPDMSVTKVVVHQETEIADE
UniProt Q14152, whole entry, looked up: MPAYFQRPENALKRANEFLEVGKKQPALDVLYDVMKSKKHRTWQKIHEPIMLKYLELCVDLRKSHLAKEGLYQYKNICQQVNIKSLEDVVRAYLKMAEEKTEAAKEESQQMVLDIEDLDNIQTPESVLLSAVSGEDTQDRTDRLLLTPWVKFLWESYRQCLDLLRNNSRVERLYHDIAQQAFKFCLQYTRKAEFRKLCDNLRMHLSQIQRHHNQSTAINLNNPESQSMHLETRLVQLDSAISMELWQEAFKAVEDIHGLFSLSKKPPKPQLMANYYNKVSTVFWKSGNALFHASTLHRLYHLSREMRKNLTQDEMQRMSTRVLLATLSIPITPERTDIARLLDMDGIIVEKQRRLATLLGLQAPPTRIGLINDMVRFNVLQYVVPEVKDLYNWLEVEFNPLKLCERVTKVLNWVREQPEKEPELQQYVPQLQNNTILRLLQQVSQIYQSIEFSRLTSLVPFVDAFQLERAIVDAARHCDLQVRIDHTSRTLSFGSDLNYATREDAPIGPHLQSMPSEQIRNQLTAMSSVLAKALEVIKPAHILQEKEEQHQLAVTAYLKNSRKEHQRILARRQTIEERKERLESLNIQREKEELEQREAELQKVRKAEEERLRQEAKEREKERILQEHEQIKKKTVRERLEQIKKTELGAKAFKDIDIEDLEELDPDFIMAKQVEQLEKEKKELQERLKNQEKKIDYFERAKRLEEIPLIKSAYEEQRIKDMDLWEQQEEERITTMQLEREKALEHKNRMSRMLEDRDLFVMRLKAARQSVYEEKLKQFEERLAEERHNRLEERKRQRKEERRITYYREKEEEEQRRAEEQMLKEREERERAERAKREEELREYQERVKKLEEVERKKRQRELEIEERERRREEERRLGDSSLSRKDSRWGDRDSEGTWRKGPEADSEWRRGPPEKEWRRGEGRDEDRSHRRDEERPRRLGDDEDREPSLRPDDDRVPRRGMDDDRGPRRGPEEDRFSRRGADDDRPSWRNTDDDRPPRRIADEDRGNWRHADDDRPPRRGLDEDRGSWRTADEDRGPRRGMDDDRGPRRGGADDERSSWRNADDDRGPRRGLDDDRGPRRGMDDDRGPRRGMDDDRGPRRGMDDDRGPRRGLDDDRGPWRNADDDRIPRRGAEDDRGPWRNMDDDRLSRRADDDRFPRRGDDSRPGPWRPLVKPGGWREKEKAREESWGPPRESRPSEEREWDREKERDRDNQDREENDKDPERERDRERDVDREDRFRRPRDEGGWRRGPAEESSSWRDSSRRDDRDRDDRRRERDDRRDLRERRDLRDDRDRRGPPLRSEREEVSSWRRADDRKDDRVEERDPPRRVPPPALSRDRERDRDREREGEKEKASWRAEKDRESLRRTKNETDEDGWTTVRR
UniProt O75822, whole entry, looked up: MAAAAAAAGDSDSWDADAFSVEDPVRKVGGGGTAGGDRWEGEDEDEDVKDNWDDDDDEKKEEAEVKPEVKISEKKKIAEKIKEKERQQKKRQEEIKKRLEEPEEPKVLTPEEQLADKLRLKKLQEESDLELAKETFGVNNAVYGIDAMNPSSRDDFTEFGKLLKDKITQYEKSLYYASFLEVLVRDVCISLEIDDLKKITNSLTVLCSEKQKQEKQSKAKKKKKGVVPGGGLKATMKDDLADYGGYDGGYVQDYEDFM
UniProt O94919: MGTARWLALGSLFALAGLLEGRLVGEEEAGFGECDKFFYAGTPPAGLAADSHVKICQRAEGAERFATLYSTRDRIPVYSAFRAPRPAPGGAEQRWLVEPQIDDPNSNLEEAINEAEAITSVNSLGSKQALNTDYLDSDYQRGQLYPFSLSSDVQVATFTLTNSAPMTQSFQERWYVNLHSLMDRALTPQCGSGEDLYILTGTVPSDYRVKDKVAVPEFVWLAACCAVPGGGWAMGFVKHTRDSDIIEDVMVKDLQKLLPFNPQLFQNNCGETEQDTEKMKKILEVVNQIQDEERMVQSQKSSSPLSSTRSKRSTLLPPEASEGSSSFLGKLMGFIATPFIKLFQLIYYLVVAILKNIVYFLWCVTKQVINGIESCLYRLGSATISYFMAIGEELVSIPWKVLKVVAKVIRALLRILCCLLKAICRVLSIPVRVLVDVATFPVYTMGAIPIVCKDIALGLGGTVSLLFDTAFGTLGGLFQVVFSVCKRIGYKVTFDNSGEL

Tests used:
Experiment in all cases: log2 fold change, soluble protein after heating vs DMSO (PISA); higher = thermal stabilisation; K562 cells, 10 uM, 30 min; active = over 0.2 and 3.5 SD of the protein, either way, in both replicates (recomputed)
[1] = compound: C1=CC=C(C=C1)[C@H](COC2=CC3=C(C=C2)NC(=O)N3)NC(=O)C4=CC=CN(C4=O)CC5=CC(=C(C=C5)F)F
Summary of the method: (§1)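 For each measurement, 10 μM compound was applied for 30 min to K562 cells at 2×10^6 cells/mL. Aliquots were heated for 3 min across 48°C-58°C, pooled, and extracted in PBS with 0.5% NP-40 at 4°C; the supernatant after 21,000xg for 90 min was soluble protein. This was quantified by TMTpro 16plex LC-MS/MS with channel sums equalised, and thermal stability was reported relative to control samples from duplicates, on a log2 fold-change scale.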

[2] = compound: CC1=C2C(=CC=C1)N=C(N(C2=O)C3=CC=CC=C3C)CN4C=NC5=C(N=CN=C54)N
Summary of the method: as §1

[3] = compound: Cc1sc2c(c1C)C(c1ccc(Cl)cc1)=N[C@@H](CC(=O)OC(C)(C)C)c1nnc(C)n1-2
Summary of the method: as §1

[4] = compound: CC1=C(SC2=C1C(=N[C@H](C3=NN=C(N32)C)CC(=O)N)C4=CC=C(C=C4)Cl)C
Summary of the method: as §1

[5] = compound: c1ccc([C@@H]2C[C@H]2NC2CCNCC2)cc1
Summary of the method: as §1

Measured: log2 fold change

ELMO1 (UniProt Q92556)
inactive: [1] -0.085 | [2] 0.026

EPB41 isoform 4 (UniProt P11171)
inactive: [1] 0.016 | [3] 0.04

EIF3A (UniProt Q14152)
inactive: [1] -0.058 | [4] -0.059 | [2] 0.046 | [3] 0.09 | [5] -0.063

EIF3J isoform 2 (UniProt O75822)
inactive: [1] 0.092 | [2] 0.25 | [3] 0.049

ENDOD1 (UniProt O94919)
inactive: [1] 0.017 | [4] 0.014 | [2] 0.031 | [3] 0.023 | [5] 0.059
